PubChem BioAssay AID1259425 | University of Nebraska Medical Center – 2018

Aim: 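Find knockdowns that reproduce the gene expression pattern seen when KSR1 is lost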 (primary screen)
System: HCT116 human colon cancer cells
Knock-down reagent: siRNA pool against human genes, 50 nM siRNA
Measured: 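After 50 nM siRNA pool, branched-DNA assay measures six marker transcripts per well, minus blank, normalised to the geometric mean of two housekeeping transcripts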
Direction: BNIP3L mRNA: higher = more BNIP3L transcript after knockdown; NDRG1 mRNA: higher = more NDRG1 transcript after knockdown; BNIP3 mRNA: higher = more BNIP3 transcript after knockdown; ALDOC mRNA: higher = more ALDOC transcript after knockdown
The deposit covers about 14,000 reagents; shown is an unselected part. The numbers tell different reagents against one gene apart. Some reagents were tested in more than one well and are listed for each. Further read-outs or replicates are left out here. The record does not give: the time to read-out.

no.	gene symbol	pool no.	BNIP3L mRNA, set 1	NDRG1 mRNA, set 1	BNIP3 mRNA, set 1	ALDOC mRNA, set 1
1	ZMAT4	1	0.191	0.316	0.465	0.0379
2	ADRA1A	1	0.118	0.194	0.23	0.0528
3	ADRA1A	1	0.109	0.28	0.229	0.0193
4	NCF4	1	0.248	0.146	0.453	0.111
5	PCDHB3	1	0.198	0.192	0.271	0.0113
6	ADORA2A	1	0.137	0.297	0.291	0.0658
7	SLC11A2	1	0.0931	0.22	0.256	0.0258
8	FGF14	1	0.387	0.0962	0.392	0.0431
9	PTPN12	1	0.1	0.136	0.31	0.0349
10	ERLIN1	1	0.165	0.116	0.275	0.033
11	ZNF484	1	0.159	0.147	0.316	0.112
12	GABBR1	1	0.132	0.0932	0.282	0.0246
13	PIGB	1	0.227	0.148	0.186	0.124
14	COX7A2L	1	0.087	0.308	0.143	0.013
15	AGTR1	1	0.211	0.37	0.597	0.0337
16	SPTAN1	1	0.178	0.354	0.371	0.0423
17	SSX1	1	0.109	0.296	0.346	0.0283
18	TRNAU1AP	1	0.0403	0.117	0.232	0.0105
19	TNRC18	1	0.105	0.769	0.652	0.0181
20	GLUD2	1	0.109	0.304	0.162	0.0272
21	RGCC	1	0.144	0.222	0.302	0.00906
22	ABCA7	1	0.203	0.22	0.336	0.0158
23	DNAL4	1	0.484	1.01	0.987	0.265
24	PLSCR1	1	0.0937	0.33	0.253	0.0488
25	HS3ST3A1	1	0.164	0.564	0.319	0.0328
26	EPB41L4A	1	0.125	0.237	0.411	0.0328
27	CFAP410	1	0.17	0.262	0.323	0.0369
28	KALRN	1	0.14	0.265	0.328	0.0522
29	KALRN	2	0.088	0.225	0.751	0.0114
30	COX6C	1	0.0751	0.12	0.259	0.017
31	IGHM	1	0.146	0.123	0.192	0.0396
32	FA2H	1	0.0827	0.337	0.373	0.0648
33	BIRC5	1	0.122	0.166	0.421	0.0121
34	POU1F1	1	0.131	0.137	0.243	0.0221

Only “NDRG1 mRNA, set 1” (4 entries from above):
AGTR1 = 0.37
SPTAN1 = 0.354
SSX1 = 0.296
TRNAU1AP = 0.117
